From the supplement of paper PMC7661543
The effect of the compound repeats well; differences between the knockouts mostly do not.

Test system: BT-20
Assay: relative cell number vs DMSO control (72 h) (% of DMSO); higher = less growth inhibition (more cells)
Method: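 QMAP-Seq: a pool of 5 breast cancer cell lines (ZR-75-1, SKBR3, HCC-38, MDA-MB-231, BT-20), each carrying 12 doxycycline-inducible Cas9 sgRNA perturbations (11 knockouts plus non-targeting sgNT), was treated with compounds for 72 h at four 10-fold doses (10 nM-10 uM or 1 nM-1 uM range). Barcodes were amplified and sequenced, and cell number was interpolated from 293T spike-in standard curves. The result is expressed as % of the median of DMSO wells. Two biological replicates.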

CC(C)n1cnc2c(NCCc3ccc(O)cc3)nc(-c3csc4ccccc34)nc21 [StemRegenin1]
Conditions | relative cell number
sgRNA knockout: sgATF3, 10 nM | 99.1
sgRNA knockout: sgATF3, 100 nM | 113
sgRNA knockout: sgATF3, 1000 nM | 94.7
sgRNA knockout: sgATF3, 10000 nM | 63.8
sgRNA knockout: sgATF4, 10 nM | 98.1
sgRNA knockout: sgATF4, 100 nM | 120
sgRNA knockout: sgATF4, 1000 nM | 106
sgRNA knockout: sgATF4, 10000 nM | 72.5
sgRNA knockout: sgATF6, 10 nM | 93.3
sgRNA knockout: sgATF6, 100 nM | 110.9
sgRNA knockout: sgATF6, 1000 nM | 101
sgRNA knockout: sgATF6, 10000 nM | 64
sgRNA knockout: sgATG7, 10 nM | 101
sgRNA knockout: sgATG7, 100 nM | 109
sgRNA knockout: sgATG7, 1000 nM | 107
sgRNA knockout: sgATG7, 10000 nM | 73.2
sgRNA knockout: sgERN1, 10 nM | 89.2
sgRNA knockout: sgERN1, 100 nM | 111
sgRNA knockout: sgERN1, 1000 nM | 110
sgRNA knockout: sgERN1, 10000 nM | 72.7
sgRNA knockout: sgHSF1, 10 nM | 87.5
sgRNA knockout: sgHSF1, 100 nM | 99.3
sgRNA knockout: sgHSF1, 1000 nM | 106
sgRNA knockout: sgHSF1, 10000 nM | 64.8
sgRNA knockout: sgHSF2, 10 nM | 102
sgRNA knockout: sgHSF2, 100 nM | 113
sgRNA knockout: sgHSF2, 1000 nM | 92.1
sgRNA knockout: sgHSF2, 10000 nM | 54.1
sgRNA knockout: sgKEAP1, 10 nM | 88.9
sgRNA knockout: sgKEAP1, 100 nM | 107
sgRNA knockout: sgKEAP1, 1000 nM | 112
sgRNA knockout: sgKEAP1, 10000 nM | 59.6
sgRNA knockout: sgNFE2L2, 10 nM | 96.9
sgRNA knockout: sgNFE2L2, 100 nM | 128
sgRNA knockout: sgNFE2L2, 1000 nM | 101
sgRNA knockout: sgNFE2L2, 10000 nM | 69.3
sgRNA knockout: sgSLC35F2, 10 nM | 92
sgRNA knockout: sgSLC35F2, 100 nM | 118
sgRNA knockout: sgSLC35F2, 1000 nM | 107
sgRNA knockout: sgSLC35F2, 10000 nM | 63.7
sgRNA knockout: sgXBP1, 10 nM | 87.75
sgRNA knockout: sgXBP1, 100 nM | 107
sgRNA knockout: sgXBP1, 1000 nM | 98.8
sgRNA knockout: sgXBP1, 10000 nM | 62.8

Cc1[nH]c(/C=C2\C(=O)Nc3ccc(S(=O)(=O)N(C)c4cccc(Cl)c4)cc32)c(C)c1C(=O)N1CCN(C)CC1
Conditions | relative cell number
sgRNA knockout: sgATF3, 10 nM | 94.9
sgRNA knockout: sgATF3, 100 nM | 92.5
sgRNA knockout: sgATF3, 1000 nM | 86.7
sgRNA knockout: sgATF3, 10000 nM | 66.5
sgRNA knockout: sgATF4, 10 nM | 100.1
sgRNA knockout: sgATF4, 100 nM | 117
sgRNA knockout: sgATF4, 1000 nM | 86.9
sgRNA knockout: sgATF4, 10000 nM | 62.9
sgRNA knockout: sgATF6, 10 nM | 104
sgRNA knockout: sgATF6, 100 nM | 79.2
sgRNA knockout: sgATF6, 1000 nM | 72.7
sgRNA knockout: sgATF6, 10000 nM | 56.8
sgRNA knockout: sgATG7, 10 nM | 87.8
sgRNA knockout: sgATG7, 100 nM | 97.6
sgRNA knockout: sgATG7, 1000 nM | 76.3
sgRNA knockout: sgATG7, 10000 nM | 51.8
sgRNA knockout: sgERN1, 10 nM | 105
sgRNA knockout: sgERN1, 100 nM | 94
sgRNA knockout: sgERN1, 1000 nM | 95.2
sgRNA knockout: sgERN1, 10000 nM | 69.3
sgRNA knockout: sgHSF1, 10 nM | 83.7
sgRNA knockout: sgHSF1, 100 nM | 99
sgRNA knockout: sgHSF1, 1000 nM | 82.2
sgRNA knockout: sgHSF1, 10000 nM | 61.9
sgRNA knockout: sgHSF2, 10 nM | 104
sgRNA knockout: sgHSF2, 100 nM | 97.4
sgRNA knockout: sgHSF2, 1000 nM | 80.1
sgRNA knockout: sgHSF2, 10000 nM | 66.6
sgRNA knockout: sgKEAP1, 10 nM | 114
sgRNA knockout: sgKEAP1, 100 nM | 100
sgRNA knockout: sgKEAP1, 1000 nM | 89.11
sgRNA knockout: sgKEAP1, 10000 nM | 58.5
sgRNA knockout: sgNFE2L2, 10 nM | 93.1
sgRNA knockout: sgNFE2L2, 100 nM | 87.5
sgRNA knockout: sgNFE2L2, 1000 nM | 89.6
sgRNA knockout: sgNFE2L2, 10000 nM | 66.6
sgRNA knockout: sgSLC35F2, 10 nM | 94.5
sgRNA knockout: sgSLC35F2, 100 nM | 101
sgRNA knockout: sgSLC35F2, 1000 nM | 91.8
sgRNA knockout: sgSLC35F2, 10000 nM | 61.9
sgRNA knockout: sgXBP1, 10 nM | 113.7
sgRNA knockout: sgXBP1, 100 nM | 100
sgRNA knockout: sgXBP1, 1000 nM | 84.8
sgRNA knockout: sgXBP1, 10000 nM | 68.5
